# Test system: A. deliciosa flowers
# Experiment: Volatiles and pentane extracts of kiwifruit flowers, GC-FID/MS
# Design: species or system Actinidia deliciosa
# Conditions: for content in pentane extracts of flowers: flowers harvested 2000, pentane extract
smiles,measurement,setting,value
C=C[C@]1(C)CC[C@@H](C(C)(C)O)C[C@H]1C(=C)C [Elemol],content in pentane extracts of flowers,,3353 ng/g
"C=C1C=CC(C(C)C)CCC(C)=CCC1 (stereo not shown) [Germacrene D, 7-iso-propyl-10-methyl-4-methylene-cyclodeca-5,10-diene]",average concentration in headspace of flowers,"A. deliciosa 'Hayward' flowers, headspace on Chromosorb 105",0.68 ng/g of petal tissue
same,content in pentane extracts of flowers,,592 ng/g
C=C/C(C)=C/C/C=C(\C)CCC=C(C)C [alpha-farnesene],content in pentane extracts of flowers,,23669 ng/g
